Measurements taken from patent US20070185028A1, “Compositions and methods for treatment of protein misfolding and protein aggregation diseases” (priority 2004, published 2007).
Results are given in words; binding and its absence hold for the method and conditions named. Binding calls can cover weak binding; strength is not graded here.

Legend:
[1] = target: Bovine βH crystallin (bovine); assay: protein pin array ELISA, A450; listed as peak peptide with unheated and pre-heated target
[2] = target: Bovine βH crystallin (bovine); assay: protein pin array ELISA, A450, unheated βH crystallin; similar maxima pre-heated at 45° C
[3] = target: Bovine βH crystallin (bovine); assay: protein pin array

binding [1]: binds | binding ([1]; record 2): binds | binding ([1]; record 3): binds | binding ([1]; record 4): binds | binding ([1]; record 5): binds | binding ([1]; record 6): binds | binding ([1]; record 7): binds | binding ([1]; record 8): binds | binding ([1]; record 9): binds | binding ([1]; record 10): binds | binding ([1]; record 11): binds | binding [2]: binds | binding ([2]; record 2): binds | binding ([2]; record 3): binds | binding ([2]; record 4): binds | binding ([2]; record 5): binds | binding ([2]; record 6): binds | binding ([2]; record 7): binds | binding ([2]; record 8): binds | binding ([2]; record 9): binds | binding ([2]; record 10): binds | binding ([2]; record 11): binds | binding [3]: binds | binding ([3]; record 2): binds | binding ([3]; record 3): binds
Binder: HGKHEERQDE […]
